# In all, about 360,000 compounds went through this assay and about 9,100 (2.5%) were called active. The inconclusive results got no clear call from the source; some entries with a clear call stand among them for comparison. No stated cut-off is given here; in the data, active means max response below about -50%; inconclusive means no clear call, values can overlap the other calls; inactive means above that.
# Chains of the proteins cited; added tags and fusions are not shown.
# UniProt P35462, whole entry, looked up: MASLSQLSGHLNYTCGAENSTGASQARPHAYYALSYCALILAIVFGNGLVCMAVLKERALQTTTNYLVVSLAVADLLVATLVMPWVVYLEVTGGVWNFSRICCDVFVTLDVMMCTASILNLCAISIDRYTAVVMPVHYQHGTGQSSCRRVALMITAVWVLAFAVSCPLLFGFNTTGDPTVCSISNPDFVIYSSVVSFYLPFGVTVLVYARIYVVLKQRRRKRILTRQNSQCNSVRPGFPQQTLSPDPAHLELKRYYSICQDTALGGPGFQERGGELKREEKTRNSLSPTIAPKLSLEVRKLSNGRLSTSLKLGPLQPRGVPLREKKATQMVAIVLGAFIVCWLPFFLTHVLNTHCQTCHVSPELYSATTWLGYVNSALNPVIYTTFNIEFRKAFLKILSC
# Molecular target: D(3) dopamine receptor (Homo sapiens) (UniProt P35462)
# Experiment: qHTS of D3 Dopamine Receptor Antagonist: qHTS
# Conditions: D3R cells, DiscoveRx beta-arrestin luminescence, antagonist mode; active compounds read low
# How it was run: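 Cells plated overnight at 1500 cells/well, then exposed to library compounds with dopamine controls for 90 minutes at 37 degrees C. DiscoveRx reagent added for 30–60 minutes at room temperature; luminescence read, quantitative HTS format.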
# On the % scale 0 is the no-effect control and ±100 the full control effect.
row,Compound,"max response, negative = inhibition"
1,CC1CCN(C(=O)c2[nH]c(C(F)(F)F)nc2-c2ccccc2)CC1,active: -68.8%
2,Cc1noc(C)c1-c1ccc(C(=O)NCc2ccc(Cl)cc2)c2occc12,inconclusive: -42.2%
3,CCCC(=O)NC(=S)Nc1ccccc1N1CCOCC1,inactive: 1.37%
4,O=S(=O)(Nc1nc2ccccc2nc1N1CCN(c2ccccc2F)CC1)c1ccc(Cl)cc1,inconclusive: -31.3%
5,CCCOP(=O)(OCCC)c1c([N+](=O)[O-])cc(C(F)(F)F)cc1[N+](=O)[O-],inconclusive: -30.3%
6,COc1ccccc1/C=N/n1c(N)c(S(=O)(=O)c2cccs2)c2nc3ccccc3nc21,inconclusive: -39.6%
7,Nc1nnnn1/N=C/c1ccc(N2CCCCC2)c([N+](=O)[O-])c1,active: -53.9%
8,Clc1cccc(N2CCN(Cc3ccc(Br)o3)CC2)c1,active: -60.2%
9,N#Cc1cnn(-c2nc3sc4c(c3c(=O)[nH]2)CCCC4)c1N,inconclusive: -34.4%
10,CC1=CC(C)(C)N2C(=O)C3(C(C#N)=C(N)Oc4cc(O)ccc43)c3c(C)c(C)cc1c32 (stereo not drawn),inconclusive: -32.3%
11,CCOC(=O)C1=C(C)NC2=C(C(=O)C(C(=O)OCC)C(c3ccco3)C2)C1c1ccccn1 (stereo not drawn),inconclusive: -48.3%
12,O=C(NNc1c2ccccc2nc2ccccc12)c1ccccc1Cl,inconclusive: -36.5%
13,CC(=O)Nc1ccc(NC2=CC(=O)c3ccccc3C2=O)cc1,inactive: -17.3%
14,Clc1ccc(-n2nnnc2-c2cnc(-c3ccccn3)nc2-c2cccs2)cc1,active: -60.1%
15,c1ccc(-n2nnnc2NC2CCCCC2)cc1,inconclusive: -47.5%
16,COc1cc(C(=O)O/N=C2/C=CC(=O)C(C)=C2C)cc(OC)c1OC,inactive: -24.1%
17,COc1ccc(C2C(C#N)=C(N)N(c3sc4c(c3C#N)CCCC4)C3=C2C(=O)CC(C)(C)C3)cc1OC (stereo not drawn),inactive: 0%
18,Cc1ccc(NC(=O)CNCC(c2ccccc2)N(C)C)cc1F (stereo not drawn),inactive: -28.1%
19,COc1ccc(CC(=O)N(Cc2ccccc2)c2cccc(C)c2)cc1OC,inactive: -1.21%
20,Cc1cc(/C=C(\C#N)C(=O)NCC2CCCO2)c(C)n1-c1ccc(Cl)cc1 (stereo not drawn),inconclusive: -49.8%
21,NC(=O)C1=C[C@H](c2ccccc2)C[C@H](OCc2ccc(CO)cc2)O1,inconclusive: -39.8%
22,CCN(CC)CCNC(=O)c1ccc(N2CCCCC2)c(NS(=O)(=O)c2ccc(C)cc2)c1,active: -81.6%

row,Compound,"max response, negative = inhibition"
1,COc1ccc(CN2CCCC(C(=O)Nc3cccc(-n4cccn4)c3)C2)c(F)c1 (stereo not drawn),inconclusive: -38.9%
2,COc1ccc(CNS(=O)(=O)NCc2ccccc2F)cc1,inactive: -10.4%
3,Cc1cccc(C(=O)NC(=S)Nc2ccc(S(=O)(=O)N(C)c3ccccc3)cc2)c1,active: -66.3%
4,N#Cc1c(-c2ccccc2Cl)noc1/C=C/Nc1ccc(C(=O)O)cc1,inactive: -4.74%
5,CCOC(=O)Nc1cc(Br)c2c(c1)OCCO2,inconclusive: -30.5%
6,COc1ccc(NC(=O)CN2c3cccc4cccc(c34)S2(=O)=O)cc1,inconclusive: -31.2%
7,CCOC(=O)C(C)n1cnc2c(nnn2-c2cccc(OC)c2)c1=O (stereo not drawn),active: -57.8%
8,Cc1cnc(C(=O)Nc2nc(-c3ccccc3)cs2)cn1,inconclusive: -42.5%
9,Cc1ccc(Cc2c(-c3cccc(Cl)c3)nc3c(C)cc(Br)cn23)cc1,inconclusive: -32.5%
10,CC1(C(=O)NCCC#N)CCN1C(=O)C1(c2ccccc2)CC1 (stereo not drawn),active: -63.4%
11,CCCCNC(=O)c1ccc(Cn2c(=S)[nH]c3c([nH]c4ccc(OC)cc43)c2=O)cc1,active: -64.7%
12,COc1ccc(C2C(C#N)=C(N)Oc3n[nH]c(C)c32)cc1Cn1nnc2ccccc21 (stereo not drawn),active: -61.5%
13,Oc1ccc2ccccc2c1CN1CCN(c2ccccc2)CC1,inconclusive: -41.8%
14,COc1cc(/C=N/NC2=NC(C)(C)Cc3ccccc32)cc(OC)c1OC,inactive: -7.47%
15,O=[N+]([O-])c1cccnc1N1CCC(c2cc(-c3ccc(Cl)cc3Cl)n[nH]2)CC1,inconclusive: -34.4%
16,CN(C)CCN(C(=O)c1ccccc1Cl)c1nc2c(Cl)cccc2s1,inconclusive: -41.1%
17,COc1ccc(C(=O)c2ccc(N(C)C)cc2)c(OC)c1,inactive: 14.6%
18,Cc1cccc(C)c1-n1nnnc1C(c1ccnc2ccccc12)N1CCN(CC(=O)NC(C)C)CC1 (stereo not drawn),inactive: -17.9%
19,CC(C)(C)NNC(=S)Nc1cccc(C(F)(F)F)c1,inactive: 11.3%
20,COc1ccc(NC(=O)CSc2nc3ncccc3[nH]2)cc1OC,inconclusive: -40.3%
21,O=C(NC1CC1)c1ccc2c(c1)N(Cc1ccccc1)CCS2,inactive: -7.96%
22,O=C(/C=C/c1ccc(OCCCF)cc1)NCc1ccc(Cl)cc1,active: -70.3%

# Entries listed so far that have an NH in an aromatic ring, in the order listed:
row,Compound,"max response, negative = inhibition"
1,CC1CCN(C(=O)c2[nH]c(C(F)(F)F)nc2-c2ccccc2)CC1,active: -68.8%
9,N#Cc1cnn(-c2nc3sc4c(c3c(=O)[nH]2)CCCC4)c1N,inconclusive: -34.4%
11,CCCCNC(=O)c1ccc(Cn2c(=S)[nH]c3c([nH]c4ccc(OC)cc43)c2=O)cc1,active: -64.7%
12,COc1ccc(C2C(C#N)=C(N)Oc3n[nH]c(C)c32)cc1Cn1nnc2ccccc21 (stereo not drawn),active: -61.5%
15,O=[N+]([O-])c1cccnc1N1CCC(c2cc(-c3ccc(Cl)cc3Cl)n[nH]2)CC1,inconclusive: -34.4%
20,COc1ccc(NC(=O)CSc2nc3ncccc3[nH]2)cc1OC,inconclusive: -40.3%

# The listing continues:

row,Compound,"max response, negative = inhibition"
1,CN1CCN(c2ccc(CNC(=O)C3Cc4c(-c5ccc(Cl)cc5)ccnc4O3)cc2)CC1 (stereo not drawn),active: -55.6%
2,CCOC(=O)C1(CC2CC2)CCN(Cc2cn(C)c3ccccc23)CC1,inconclusive: -42.8%
3,CC(C)c1ccc(S(=O)(=O)N2CCC(C(=O)NCC3(N(C)C)CCCCC3)CC2)cc1,inactive: 4.09%
4,CCCCc1ccc(NC(=S)NCc2ccc(OC)cc2)cc1,inconclusive: -43.5%
5,Cc1cccc(N2CCN(S(=O)(=O)c3ccc(-c4ccc(=O)[nH]n4)o3)CC2)c1C,inconclusive: -40.5%
6,Cc1cc(C)c2c(c1)c1nnc(SCCN3CCCCC3)nc1n2C,inconclusive: -39.9%
7,COc1ccc(S(=O)(=O)Nc2cc(Cl)ccc2-n2cncn2)cc1,inactive: 1.9%
8,CCC(=O)N1CCc2cc(S(=O)(=O)NCCC(=O)NC3CCCCCC3)ccc21,inactive: 25.7%
9,Cc1cc2ncc(-c3ccccc3)nc2cc1C,inactive: 15.3%
10,CN(CC(=O)Nc1ccc(C#N)cc1)Cc1ccc(Cl)cc1,inconclusive: -39.1%
11,Cc1ccc(NC2=C(Cl)C(=O)c3ccccc3C2=O)cc1,inconclusive: -33%
12,COc1ccc(NC(=O)CCC(=O)N/N=C/c2ccc([N+](=O)[O-])s2)cc1,inconclusive: -32.2%
13,COC1=C(OC)C(=O)C(Sc2ccc3ccccc3c2)=CC1=O,active: -62.4%
14,O=C(CCOc1ccccc1)N1CCN(c2ccc(O)cc2)CC1,inactive: 2.08%
15,O=C1NC(=Nc2ccccc2)S/C1=C\c1cccnc1,inconclusive: -36.7%
16,O=C(NC(=S)Nc1ccc(CN2CCOCC2)cc1)c1ccc2c(c1)OCCO2,inactive: -5.27%
17,NC(=O)c1ccc(SCC(=O)OCC(=O)N2CCCC2=O)c([N+](=O)[O-])c1,inactive: -1.11%
18,O=C(CN1C(=O)NC2(CCc3ccccc32)C1=O)NCc1ccccc1Cl (stereo not drawn),inconclusive: -33.4%
19,CC(CCc1ccccc1)NC(=O)C(=O)c1c[nH]c2ccccc12 (stereo not drawn),inconclusive: -34.5%
20,CC1=CC(=O)C(C(C)C)=C/C1=N/OS(=O)(=O)c1ccccc1,active: -78.7%
21,Cc1c(C)n(Cc2ccc(Cl)cc2)c2ccc(C(=O)NCCCN3CCOCC3)cc12,inconclusive: -33.5%
22,Cc1ccc(Cl)cc1N1CCN(S(=O)(=O)c2cccc(S(=O)(=O)N3CCCC3)c2)CC1,inconclusive: -45.7%

row,Compound,"max response, negative = inhibition"
1,Cc1cccc(CC(=O)NCC(=O)NCc2cc(=O)n(C)c(=O)n2C)c1,inactive: 2.27%
2,CN1CCN(/C(=N\S(=O)(=O)c2ccc(F)cc2)c2ccccc2)CC1,inactive: -5.05%
3,Cc1c(Cl)cccc1Nc1nc(N)nc(CN2CCCCCC2)n1,inconclusive: -32.8%
4,CC(=O)Nc1ccc2c(c1)nc(CN1CCCC1)n2C,active: -50.4%
5,C=CCN([C@H](C(=O)OC)C(C)C)S(=O)(=O)CCNCc1ccccc1,inconclusive: -48.5%
6,CSc1ccc(S(=O)(=O)NCC(=O)OC(C)C(=O)NCc2ccccc2)cc1[N+](=O)[O-] (stereo not drawn),inconclusive: -45.9%
7,O=C(NCc1ccccc1)OCCN1CCN(Cc2ccccc2)CCC1=O,active: -68.3%
8,COc1ccc(Cl)cc1S(=O)(=O)N1CCN(CC(=O)C(C)(C)C)CC1,inconclusive: -31.7%
9,c1ccc(-n2cc(CNCCc3cscn3)c(-c3ccc4c(c3)OCO4)n2)cc1,active: -61.9%
10,COc1ccc(C)cc1NC(=O)c1ccc(CN2CCN(c3ccccc3)CC2)cc1,inconclusive: -34.4%
11,Cc1nn(CCC(=O)NNC(=S)Nc2ccc(F)cc2)c(C)c1Br,inconclusive: -36.3%
12,CN1CCN(CCOc2cccc(Cl)c2)CC1,inconclusive: -37.7%
13,COC(=O)CSc1n[nH]c(=S)s1,active: -67.8%
14,Nc1c2c(nc3ccc(Br)cc13)N(Cc1ccccc1)CC2,active: -58.8%
15,CC1=C/C(=N\S(=O)(=O)c2ccccc2)C(C(C)C)=CC1=O,inconclusive: -34.5%
16,CC(C)CN1C(=O)CN(S(C)(=O)=O)CC1(C)C(=O)Nc1ccc2c(c1)OCCO2 (stereo not drawn),inconclusive: -32.3%
17,Cc1ccc(C(=O)NCCSC2CCCCC2)cc1S(=O)(=O)Nc1ccccc1,inconclusive: -46.1%
18,CC(=O)NCCc1nc2ccccc2n1CCOc1ccc(C)cc1,inactive: -7.8%
19,CCOc1c(Cl)cc(CNc2ccc(N3CCCC3)cc2)cc1OC,inconclusive: -43.8%
20,CCN(CC)CCNC(=O)c1ccc(NC(=O)C2CCN(c3ncnc4sc(C)c(C)c34)CC2)cc1,inconclusive: -31.4%
21,COc1ccc(OCCCC(=O)OCC(=O)Nc2ccc(Cl)cn2)cc1,inconclusive: -36.4%
22,O=C(COC(=O)C1CCN(S(=O)(=O)c2ccccc2C(F)(F)F)CC1)NCc1ccc(F)cc1,inactive: -17.8%

# Reference: PubChem BioAssay AID652054 (National Center for Advancing Translational Sciences (NCATS), 2013)
